Measured values: publication PMC5843628, “Phosphorylation of conserved phosphoinositide binding pocket regulates sorting nexin membrane targeting” (Nature Communications, 2018)
These are yes or no findings as the source states them, for the method shown.

Protein sequences, listed by entry. Tags and fused reporters are not part of them. Residues count along the entry.
UniProt Q9UMY4, residues 27-159: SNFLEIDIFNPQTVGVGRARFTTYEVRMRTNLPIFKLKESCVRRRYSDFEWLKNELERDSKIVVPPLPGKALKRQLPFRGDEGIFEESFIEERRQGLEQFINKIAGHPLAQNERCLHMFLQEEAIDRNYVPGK

Assays:
PX domain of SNX12 [1] = target: PX domain of SNX12 (UniProt Q9UMY4); assay: NMR peak widths; 1H,15N resolved NMR spectra, 298 K; in solution or when bound to PI3P molecules; both purified
PX domain of SNX12 [2] = target: PX domain of SNX12 (UniProt Q9UMY4); assay: AUC; sedimentation velocity, two-sector cell, 129,024 x g for 17 h at 4 °C, absorbance at 280 nm, in the buffer used for NMR experiments; c(s) by SEDFIT; both purified

binding (PX domain of SNX12 [1]): no binding
binding (PX domain of SNX12 [2]): no binding
Substance: PX domain of SNX12 (from UniProt Q9UMY4 27-159) (domain or fragment)
